No constants are given. Whether binding was seen depends on the method and setting. In cells and extracts the contact can be indirect. Some entries that bind do so weakly or less than the wild type.
Experiments:
[1] = target: Myc-CUL5 (UniProt Q9D5V5); assay: co-IP; HEK293T cells transfected with the indicated constructs for 24 h, MG132 (20 µM) 4 h before collection; lysis in 50 mM HEPES, 150 mM NaCl, 1% Triton X-100, 0.5% NP40; IP with anti-HA, anti-Myc or anti-GFP, western blotting
[2] = target: CUL5 (endogenous, human) (human (endogenous in human primary CD8+ T cells)) (UniProt Q93034); assay: co-IP; endogenous proteins in human primary CD8 cells (NC and CUL5 KO), MG132 (20 µM) 4 h; IP with anti-CUL5 antibody, Western analysis with anti-CUL5 and anti-PCMTD2

Sequences of proteins named here, by UniProt entry; tags and fusion partners are left off.
UniProt Q9D5V5: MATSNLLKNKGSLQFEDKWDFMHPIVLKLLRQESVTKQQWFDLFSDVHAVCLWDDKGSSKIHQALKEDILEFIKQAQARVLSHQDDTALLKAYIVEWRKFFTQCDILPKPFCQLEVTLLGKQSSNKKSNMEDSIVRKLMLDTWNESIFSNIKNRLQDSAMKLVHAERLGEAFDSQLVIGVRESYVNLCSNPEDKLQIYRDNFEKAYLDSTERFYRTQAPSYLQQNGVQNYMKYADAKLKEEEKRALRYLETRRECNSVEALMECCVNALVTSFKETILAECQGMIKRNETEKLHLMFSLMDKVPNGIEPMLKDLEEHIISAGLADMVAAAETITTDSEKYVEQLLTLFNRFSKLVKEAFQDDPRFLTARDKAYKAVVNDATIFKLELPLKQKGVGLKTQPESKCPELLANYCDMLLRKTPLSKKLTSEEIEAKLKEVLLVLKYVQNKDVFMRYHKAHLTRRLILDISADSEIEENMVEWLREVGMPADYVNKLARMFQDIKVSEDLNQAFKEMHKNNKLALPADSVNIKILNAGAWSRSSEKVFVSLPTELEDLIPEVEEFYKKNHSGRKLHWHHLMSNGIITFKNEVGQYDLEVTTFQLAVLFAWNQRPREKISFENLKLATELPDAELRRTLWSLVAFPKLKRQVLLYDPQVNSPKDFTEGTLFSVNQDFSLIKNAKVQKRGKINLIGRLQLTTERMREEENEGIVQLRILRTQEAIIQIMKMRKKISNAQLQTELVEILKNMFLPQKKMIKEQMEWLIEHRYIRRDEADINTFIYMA
UniProt Q93034: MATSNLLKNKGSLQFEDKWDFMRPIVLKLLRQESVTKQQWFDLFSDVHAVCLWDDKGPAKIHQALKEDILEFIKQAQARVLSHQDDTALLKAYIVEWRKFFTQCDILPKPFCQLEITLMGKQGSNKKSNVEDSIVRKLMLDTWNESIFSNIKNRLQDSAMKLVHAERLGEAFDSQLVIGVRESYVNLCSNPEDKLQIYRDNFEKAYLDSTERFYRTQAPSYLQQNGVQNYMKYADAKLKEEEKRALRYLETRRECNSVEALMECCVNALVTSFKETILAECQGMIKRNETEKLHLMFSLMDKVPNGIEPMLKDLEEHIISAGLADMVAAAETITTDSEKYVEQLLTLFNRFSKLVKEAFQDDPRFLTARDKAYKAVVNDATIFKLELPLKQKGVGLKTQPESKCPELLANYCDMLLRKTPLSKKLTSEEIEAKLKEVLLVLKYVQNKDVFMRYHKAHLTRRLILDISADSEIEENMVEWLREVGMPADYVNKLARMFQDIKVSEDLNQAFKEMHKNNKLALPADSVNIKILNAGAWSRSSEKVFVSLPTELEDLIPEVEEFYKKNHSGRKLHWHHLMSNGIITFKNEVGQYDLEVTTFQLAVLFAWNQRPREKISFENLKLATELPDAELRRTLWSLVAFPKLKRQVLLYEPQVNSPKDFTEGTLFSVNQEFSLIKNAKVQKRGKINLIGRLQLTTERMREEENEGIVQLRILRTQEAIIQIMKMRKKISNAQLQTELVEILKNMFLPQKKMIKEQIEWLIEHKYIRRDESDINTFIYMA
UniProt Q8BHD8: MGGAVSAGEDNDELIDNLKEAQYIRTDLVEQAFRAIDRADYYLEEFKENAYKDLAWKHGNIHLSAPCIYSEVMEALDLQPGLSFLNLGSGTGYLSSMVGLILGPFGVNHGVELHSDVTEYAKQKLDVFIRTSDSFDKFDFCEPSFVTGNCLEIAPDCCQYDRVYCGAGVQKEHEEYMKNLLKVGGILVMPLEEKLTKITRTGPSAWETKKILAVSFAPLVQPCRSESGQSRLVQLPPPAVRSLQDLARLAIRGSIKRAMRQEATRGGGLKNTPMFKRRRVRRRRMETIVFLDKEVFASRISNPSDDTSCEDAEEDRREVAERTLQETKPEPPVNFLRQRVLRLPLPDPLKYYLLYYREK
UniProt Q9NV79: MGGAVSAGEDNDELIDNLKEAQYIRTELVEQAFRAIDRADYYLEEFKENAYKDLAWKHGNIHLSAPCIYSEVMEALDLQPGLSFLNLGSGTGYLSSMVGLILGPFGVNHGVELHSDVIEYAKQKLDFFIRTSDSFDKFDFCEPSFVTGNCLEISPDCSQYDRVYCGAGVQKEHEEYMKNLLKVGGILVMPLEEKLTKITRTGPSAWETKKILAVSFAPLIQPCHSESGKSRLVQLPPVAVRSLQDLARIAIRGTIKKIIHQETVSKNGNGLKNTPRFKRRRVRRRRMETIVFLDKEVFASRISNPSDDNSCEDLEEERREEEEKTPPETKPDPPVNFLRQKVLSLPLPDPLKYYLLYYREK

Substance	binding [1]	binding [2]
HA-PCMTD2 (from UniProt Q8BHD8 1-359)	binds	–
PCMTD2 (endogenous, human) (from UniProt Q9NV79 1-361)	–	binds

From publication PMC10798966
